Drawing on paper PMC7819943, “Rice protein-binding microarrays: a tool to detect cis-acting elements near promoter regions in rice”, this text covers binding signal for 42 sequences.

The other results are listed elsewhere or left out.

This assay deals with T1, OsSMF1 (Oryza sativa, UniProt Q6ZLB0 1-436).
T1 sequence: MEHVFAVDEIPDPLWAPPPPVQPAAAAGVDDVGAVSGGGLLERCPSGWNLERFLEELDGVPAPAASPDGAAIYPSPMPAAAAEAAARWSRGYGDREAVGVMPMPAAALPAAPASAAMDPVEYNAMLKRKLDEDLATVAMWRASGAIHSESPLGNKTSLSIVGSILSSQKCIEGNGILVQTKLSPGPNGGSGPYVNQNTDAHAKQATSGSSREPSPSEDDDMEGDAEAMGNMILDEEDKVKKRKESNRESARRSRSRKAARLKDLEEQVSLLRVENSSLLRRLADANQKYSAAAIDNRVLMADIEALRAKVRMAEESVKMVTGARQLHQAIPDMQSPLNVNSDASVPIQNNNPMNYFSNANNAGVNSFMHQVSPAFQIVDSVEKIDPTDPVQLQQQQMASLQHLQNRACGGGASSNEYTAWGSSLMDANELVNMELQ
Briefly: protein-binding microarray (RPBM); PBS, 2% BSA, 51.3 ng/ul salmon testes DNA, 50 uM zinc acetate, 200 nM TF, 25 C, 1 h; high values mean tight binding. The conditions noted are these: protein: recombinant; tags: N-terminal polyhistidine and DsRed monomer fusion (pET32a); chain copies: 2; label: CyDye5-dUTP incorporated in the synthesized complementary strand; 3' TTTTT single-stranded linker to array surface; dsDNA, one strand shown. Put shortly:
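Per-feature fluorescence intensity (arbitrary units), read on an Axon 4000B scanner, is the binding signal. Transcription factors carrying an N-terminal polyhistidine tag and DsRed fusion were expressed in E. coli BL21-CodonPlus and purified on Ni–NTA. A custom Agilent array, made double-stranded by primer extension with Cy5-dUTP and blocked with 2% BSA, was incubated with 200 nM protein in PBS, 2% BSA, salmon testes DNA and 50 µM zinc acetate at 25 °C for 1 h and then washed.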
Regarding “CTCCAACGACTGCCACGATTGCGTCACCATCTTCGTCTTCCGGAGTCACCTAGTGCAG”, the binding signal is 13600 fluorescence intensity (a.u.). Take “GTAGATTGGGATCCAGGGAAGGGGAGCGGACGGTTCGAGTCGGAGTCACCTAGTGCAG”: the binding signal was 24500 fluorescence intensity (a.u.). Then “TGTGCTGTTCGTGCTGATTCGGACGCGTCGGCAGCTGGTGCGGAGTCACCTAGTGCAG”, with 4800 fluorescence intensity (a.u.). For the sequence “TTGAACAAAAGAACATACCCTTAATCACATTAGTCGAATTCGGAGTCACCTAGTGCAG”, the binding signal was 3250 fluorescence intensity (a.u.). Then “GCTTATCGTGTCACCGCGAGAGGATAGGAACGACACACACCGGAGTCACCTAGTGCAG”, with 3760 fluorescence intensity (a.u.).

“GTTATTAGCGTCGTGATCCAATATGACGGTGCCAATGATACGGAGTCACCTAGTGCAG”: the binding signal is 4450 fluorescence intensity (a.u.). Then “GAGAGACTTTGAGATGGCGTGTCTACTCGGAAGGCGTAGGCGGAGTCACCTAGTGCAG”, with 3160 fluorescence intensity (a.u.); and “GACAGTGGTTTTGGCTGACGTGGCGCATACGTGGCTAATTCGGAGTCACCTAGTGCAG”, with 12700 fluorescence intensity (a.u.). As for “AAATATTGACGTTCTCTTTTACAGTTGCTATTGTTGTGCTCGGAGTCACCTAGTGCAG”, the binding signal is 3230 fluorescence intensity (a.u.). The result for “GGCGACTGGGTGCGGTTGCACTCCCGCGTAAAACACGTCACGGAGTCACCTAGTGCAG” reads 7400 fluorescence intensity (a.u.); that for “ACCAAATGTTATTTTATGAGTCAACAGTCTAAATCCTTCACGGAGTCACCTAGTGCAG”, 4570 fluorescence intensity (a.u.); that for “CAACGGAACGCATGCAAGTATGTACGTGGTCGTTTCAGTCCGGAGTCACCTAGTGCAG”, 4360 fluorescence intensity (a.u.). The result for “CGTCCACGTGGCATGCCACATCAGCACCACGTATGATACTCGGAGTCACCTAGTGCAG” reads 32900 fluorescence intensity (a.u.); that for “AAGACCAGCCACGTGTGCACGGACGTCAGGGCATCTACCGCGGAGTCACCTAGTGCAG”, 12000 fluorescence intensity (a.u.). For “TCTGCTTAAATCATGTGCTATACCGGTGTAAATACAGTTGCGGAGTCACCTAGTGCAG”, the binding signal was 3330 fluorescence intensity (a.u.). Regarding “GGAGGCGGCGGCGACGAGGAGGGGCGTGGGCGGCGGCGGCCGGAGTCACCTAGTGCAG”, the binding signal is 3660 fluorescence intensity (a.u.). Consider “GACATTGGTGTATGATTCATGGTGGTCCCCTACCTCGCCCCGGAGTCACCTAGTGCAG”, for which the binding signal is 3160 fluorescence intensity (a.u.). For “GCGCCGCGGTGGAGGCGAGTGGGCGACACGTGGGAAGTGGCGGAGTCACCTAGTGCAG”, the binding signal was 6610 fluorescence intensity (a.u.). For the sequence “TTTGTCCTCACTTCTGGGGCCCCACCTGTCACCTGACAGGCGGAGTCACCTAGTGCAG”, the binding signal was 36000 fluorescence intensity (a.u.). Consider “CTTGGATGAGCCGCTCTTTTATGAAACAACTCCACGTGTACGGAGTCACCTAGTGCAG”, for which the binding signal is 9940 fluorescence intensity (a.u.). “AGAGACGAGGCGGAGCTGGTTGGCATCGACGAGGCAAGCGCGGAGTCACCTAGTGCAG”: the binding signal was 3590 fluorescence intensity (a.u.).

On to “AAGACTAGACAATATCGACAGAAAATGGTAAGCCTGGTTTCGGAGTCACCTAGTGCAG”, for which the binding signal is 4710 fluorescence intensity (a.u.). Then “CGTGTTGCAAACTTCTGACTGTAGTACTGTACGACAACAACGGAGTCACCTAGTGCAG”, with 3680 fluorescence intensity (a.u.); and “ACGCGCAGCCACGATCGCTCGCTCGTTGGGTCGGTGACGTCGGAGTCACCTAGTGCAG”, with 3730 fluorescence intensity (a.u.).

As for “GTGTGTGGTGTGGTGGTCCTCGCGCGCAATTGCTTTCCGTCGGAGTCACCTAGTGCAG”, the binding signal was 4140 fluorescence intensity (a.u.). Then “CAATTAATTAAGTACGTGGACGTACTGTCTTAATTGAACGCGGAGTCACCTAGTGCAG”, with 3760 fluorescence intensity (a.u.); and “ACACCATAGAACAGTTAATCACATACGTGTGTTAATGTCGCGGAGTCACCTAGTGCAG”, with 4350 fluorescence intensity (a.u.); and “CGGATTCGCCACAGATCTCTCGCCCCACGTCGCCGCCCTCCGGAGTCACCTAGTGCAG”, with 5040 fluorescence intensity (a.u.). For the sequence “TTTTGTTGACAGCTAGCGTCAGGTTTATCTACTCGTCGTCCGGAGTCACCTAGTGCAG”, the binding signal was 3740 fluorescence intensity (a.u.).

Regarding “TCATCTATAAAAGAGCCCCTCTTCCCAAGCCTCAATTCCCCGGAGTCACCTAGTGCAG”, the binding signal was 16200 fluorescence intensity (a.u.). Regarding “ACTAAAGTTTACTCACTGCATTGCAAATATGCAGCTTGCACGGAGTCACCTAGTGCAG”, the binding signal is 39000 fluorescence intensity (a.u.). Take “CCAGTGTCAAGCCCAGATGCGGTGGTGGCCCATCATTAGCCGGAGTCACCTAGTGCAG”: the binding signal was 3190 fluorescence intensity (a.u.). For “CGGCCGCCGCGACACCCGCCGCCACGTCGCCCCGCCACGCCGGAGTCACCTAGTGCAG”, the binding signal was 9460 fluorescence intensity (a.u.).

With “AGAGGGCGCTGACGTGTGGGCCCCACATAAAATTCTTCCGCGGAGTCACCTAGTGCAG”, the binding signal was 11300 fluorescence intensity (a.u.). Take “ATATTCACCACGTCGTCTTCCTCGTCGTCGCCGCTCTATACGGAGTCACCTAGTGCAG”: the binding signal is 5040 fluorescence intensity (a.u.). “CTGGTTCTGCTGAGGCTGACGTGGCGGCGGGTGGGGCCCACGGAGTCACCTAGTGCAG”: the binding signal is 15200 fluorescence intensity (a.u.). In the case of “CCCATCGGACGACTCAAGTGCAGCCACGTACGCAAAACGCCGGAGTCACCTAGTGCAG”, the binding signal was 14100 fluorescence intensity (a.u.).

For the sequence “TGTGGGATATTGTTCCGAAGATTTGATTATAATGAATCCACGGAGTCACCTAGTGCAG”, the binding signal is 28600 fluorescence intensity (a.u.). For the sequence “AATGTTGACTCCAGGCAATCAGCGTGGCCGCGTCACAGCACGGAGTCACCTAGTGCAG”, the binding signal is 3380 fluorescence intensity (a.u.).

As for “GTCCCTAACATGTGGGTACACCTGTTGACTCGGCAAATCACGGAGTCACCTAGTGCAG”, the binding signal was 3990 fluorescence intensity (a.u.).

For “GTTTTCTTTGTTGTCATCATCCTTGCTGGACTCGTCCTTACGGAGTCACCTAGTGCAG”, the binding signal was 5810 fluorescence intensity (a.u.). The result for “AGGTGGGCAATGGCATCCGAGTCACCAAGTGGGGCCCACCCGGAGTCACCTAGTGCAG” reads 7750 fluorescence intensity (a.u.).
